Where a name gives a salt, the structure may show the parent alone. This is one part of the list. Hit calls seldom repeat between salt and free forms of one compound.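 Kinases were expressed as nanoluciferase fusions in K562 cells and luminescence was read every 4 h between 2 and 18 h as percent of control, DMSO set to 100% and a positive control to 0%. A time point counts as decreased when the signal drops significantly (2 sigma). The hit call is the authors' own, does not follow from the count of time points alone, and its rule is not shown.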
Legend:
Conditions in all cases: K562; 2-18 h
STK38 = STK38 (UniProt Q15208); experiment: kinase-Nluc reporter destabilization hit call (1 = scored as downregulated) (binary); higher = compound decreases kinase abundance
SYK = SYK (UniProt P43405); experiment: as above
TEC = TEC (UniProt P42680); experiment: as above
TYK2 = TYK2 (UniProt P29597); experiment: as above
ULK3 = ULK3 (UniProt Q6PHR2); experiment: as above
YES1 = YES1 (UniProt P07947); experiment: as above
ZAK = ZAK (UniProt Q9NYL2); experiment: as above
ZAP70 = ZAP70 (UniProt P43403); experiment: as above
ABL1 = ABL1 (UniProt P00519); experiment: number of time points (of 5) at which kinase-Nluc abundance scored as decreased, DMSO-normalised (count); higher = more persistent destabilization
AKT1 = AKT1 (UniProt P31749); experiment: as above
ALK = ALK (UniProt Q9UM73); experiment: as above
ARAF = ARAF (UniProt P10398); experiment: as above
AURKA = AURKA (UniProt O14965); experiment: as above
AURKB = AURKB (UniProt Q96GD4); experiment: as above
AURKC = AURKC (UniProt Q9UQB9); experiment: as above
BLK = BLK (UniProt P51451); experiment: as above
BMX = BMX (UniProt P51813); experiment: as above
BRAF = BRAF (UniProt P15056); experiment: as above
BRAF_V600E = experiment: as above
BTK = BTK (UniProt Q06187); experiment: as above

Amino acid sequences for entries named in this document (tags omitted). A change or cut given only in a name is not applied to a line headed by its entry.
UniProt P29597: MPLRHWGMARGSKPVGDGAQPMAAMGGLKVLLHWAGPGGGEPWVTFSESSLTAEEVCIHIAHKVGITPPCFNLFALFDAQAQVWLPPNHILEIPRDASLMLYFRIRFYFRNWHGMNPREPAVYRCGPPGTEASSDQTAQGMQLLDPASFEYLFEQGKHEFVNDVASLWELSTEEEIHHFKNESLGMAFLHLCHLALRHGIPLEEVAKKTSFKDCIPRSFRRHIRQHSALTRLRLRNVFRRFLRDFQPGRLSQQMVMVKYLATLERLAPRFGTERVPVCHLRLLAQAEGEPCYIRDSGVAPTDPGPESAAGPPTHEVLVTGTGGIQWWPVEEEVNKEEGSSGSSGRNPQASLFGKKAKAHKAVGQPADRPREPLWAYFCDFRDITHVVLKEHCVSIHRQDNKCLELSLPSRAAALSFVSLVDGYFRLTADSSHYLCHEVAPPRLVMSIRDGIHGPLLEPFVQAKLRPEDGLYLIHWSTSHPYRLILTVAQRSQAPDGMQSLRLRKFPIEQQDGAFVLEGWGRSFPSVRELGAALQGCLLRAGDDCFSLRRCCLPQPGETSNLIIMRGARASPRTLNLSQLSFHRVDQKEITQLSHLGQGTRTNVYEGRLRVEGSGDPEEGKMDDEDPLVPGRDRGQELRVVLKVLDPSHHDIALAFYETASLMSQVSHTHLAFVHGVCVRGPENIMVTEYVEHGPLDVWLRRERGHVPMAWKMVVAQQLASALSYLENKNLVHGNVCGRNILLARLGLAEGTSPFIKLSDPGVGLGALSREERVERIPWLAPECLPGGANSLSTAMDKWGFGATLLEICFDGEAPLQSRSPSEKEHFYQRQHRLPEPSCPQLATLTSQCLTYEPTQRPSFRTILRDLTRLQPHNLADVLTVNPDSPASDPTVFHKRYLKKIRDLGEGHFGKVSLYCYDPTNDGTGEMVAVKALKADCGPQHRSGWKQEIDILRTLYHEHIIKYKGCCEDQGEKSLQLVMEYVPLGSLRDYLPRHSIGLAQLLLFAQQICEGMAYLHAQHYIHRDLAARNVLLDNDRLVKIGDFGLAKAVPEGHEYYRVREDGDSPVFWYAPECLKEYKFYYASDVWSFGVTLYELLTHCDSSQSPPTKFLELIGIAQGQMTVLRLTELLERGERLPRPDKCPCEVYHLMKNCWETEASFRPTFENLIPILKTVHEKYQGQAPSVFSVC
UniProt P07947, whole entry, looked up: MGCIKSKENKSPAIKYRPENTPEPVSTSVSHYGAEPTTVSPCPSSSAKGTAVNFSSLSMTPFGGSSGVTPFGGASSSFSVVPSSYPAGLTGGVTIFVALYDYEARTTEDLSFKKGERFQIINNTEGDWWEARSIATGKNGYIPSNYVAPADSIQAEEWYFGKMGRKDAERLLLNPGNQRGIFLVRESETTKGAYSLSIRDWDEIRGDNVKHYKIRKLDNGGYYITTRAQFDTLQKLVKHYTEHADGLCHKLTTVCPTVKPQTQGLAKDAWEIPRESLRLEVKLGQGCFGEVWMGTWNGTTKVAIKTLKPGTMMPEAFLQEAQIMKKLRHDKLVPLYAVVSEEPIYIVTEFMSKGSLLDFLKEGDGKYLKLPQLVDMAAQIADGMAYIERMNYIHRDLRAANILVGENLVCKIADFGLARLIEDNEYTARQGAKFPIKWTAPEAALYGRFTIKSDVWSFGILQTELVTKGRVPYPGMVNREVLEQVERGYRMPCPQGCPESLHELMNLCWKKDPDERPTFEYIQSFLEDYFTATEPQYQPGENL
UniProt P43403: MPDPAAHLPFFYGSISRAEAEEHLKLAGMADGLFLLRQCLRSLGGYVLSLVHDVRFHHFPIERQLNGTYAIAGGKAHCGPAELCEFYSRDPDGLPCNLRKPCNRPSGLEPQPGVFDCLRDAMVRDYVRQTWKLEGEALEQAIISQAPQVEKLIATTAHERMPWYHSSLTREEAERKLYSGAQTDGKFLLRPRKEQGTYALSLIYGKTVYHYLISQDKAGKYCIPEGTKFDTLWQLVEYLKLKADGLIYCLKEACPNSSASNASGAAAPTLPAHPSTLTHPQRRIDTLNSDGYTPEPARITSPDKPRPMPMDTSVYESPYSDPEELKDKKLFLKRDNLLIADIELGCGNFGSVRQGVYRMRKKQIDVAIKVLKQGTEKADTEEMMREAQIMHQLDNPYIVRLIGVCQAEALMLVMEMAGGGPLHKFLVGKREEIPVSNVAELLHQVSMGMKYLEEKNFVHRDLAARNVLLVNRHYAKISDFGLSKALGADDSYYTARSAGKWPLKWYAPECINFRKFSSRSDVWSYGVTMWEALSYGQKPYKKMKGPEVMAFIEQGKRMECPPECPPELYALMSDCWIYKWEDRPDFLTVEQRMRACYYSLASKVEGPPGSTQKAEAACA
UniProt P00519, whole entry: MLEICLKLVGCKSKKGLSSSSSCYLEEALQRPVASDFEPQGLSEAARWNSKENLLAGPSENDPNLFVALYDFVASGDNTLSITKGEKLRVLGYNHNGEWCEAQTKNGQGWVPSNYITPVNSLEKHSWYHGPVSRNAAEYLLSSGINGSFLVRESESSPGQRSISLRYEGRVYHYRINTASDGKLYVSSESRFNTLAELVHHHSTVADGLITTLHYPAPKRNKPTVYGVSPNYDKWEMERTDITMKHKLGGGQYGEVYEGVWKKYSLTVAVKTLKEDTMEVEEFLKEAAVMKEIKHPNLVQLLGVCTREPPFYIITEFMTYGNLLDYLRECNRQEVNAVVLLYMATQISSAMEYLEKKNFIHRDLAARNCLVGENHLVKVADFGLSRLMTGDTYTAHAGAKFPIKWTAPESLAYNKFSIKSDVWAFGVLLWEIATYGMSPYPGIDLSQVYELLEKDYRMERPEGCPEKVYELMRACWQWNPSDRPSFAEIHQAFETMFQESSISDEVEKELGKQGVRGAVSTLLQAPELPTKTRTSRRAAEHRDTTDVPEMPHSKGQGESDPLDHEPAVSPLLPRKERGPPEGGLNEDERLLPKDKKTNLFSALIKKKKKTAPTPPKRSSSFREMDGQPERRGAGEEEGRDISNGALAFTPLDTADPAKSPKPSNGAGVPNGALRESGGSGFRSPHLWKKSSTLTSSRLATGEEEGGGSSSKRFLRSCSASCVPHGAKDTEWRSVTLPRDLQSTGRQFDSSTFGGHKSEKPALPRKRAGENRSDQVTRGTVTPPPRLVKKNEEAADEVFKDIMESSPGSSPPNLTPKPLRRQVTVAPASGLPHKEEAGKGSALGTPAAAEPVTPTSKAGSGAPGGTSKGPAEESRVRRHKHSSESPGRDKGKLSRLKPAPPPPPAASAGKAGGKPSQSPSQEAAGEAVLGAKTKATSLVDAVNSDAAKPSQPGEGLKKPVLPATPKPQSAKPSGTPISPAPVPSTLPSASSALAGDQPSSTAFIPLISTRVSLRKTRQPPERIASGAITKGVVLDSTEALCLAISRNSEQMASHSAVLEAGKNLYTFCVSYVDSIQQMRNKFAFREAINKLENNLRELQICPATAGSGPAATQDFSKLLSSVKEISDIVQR
UniProt O14965: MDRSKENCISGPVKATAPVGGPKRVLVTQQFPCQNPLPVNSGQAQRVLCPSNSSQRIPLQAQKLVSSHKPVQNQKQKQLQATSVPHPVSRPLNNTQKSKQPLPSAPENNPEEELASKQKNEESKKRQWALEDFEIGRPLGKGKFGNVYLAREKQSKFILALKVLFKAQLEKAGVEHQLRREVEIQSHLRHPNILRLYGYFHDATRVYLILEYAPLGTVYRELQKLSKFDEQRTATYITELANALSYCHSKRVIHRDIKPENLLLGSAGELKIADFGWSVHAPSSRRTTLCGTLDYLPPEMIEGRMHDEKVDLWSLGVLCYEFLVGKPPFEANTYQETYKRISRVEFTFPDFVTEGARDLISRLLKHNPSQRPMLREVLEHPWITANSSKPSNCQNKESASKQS
UniProt Q96GD4, whole entry: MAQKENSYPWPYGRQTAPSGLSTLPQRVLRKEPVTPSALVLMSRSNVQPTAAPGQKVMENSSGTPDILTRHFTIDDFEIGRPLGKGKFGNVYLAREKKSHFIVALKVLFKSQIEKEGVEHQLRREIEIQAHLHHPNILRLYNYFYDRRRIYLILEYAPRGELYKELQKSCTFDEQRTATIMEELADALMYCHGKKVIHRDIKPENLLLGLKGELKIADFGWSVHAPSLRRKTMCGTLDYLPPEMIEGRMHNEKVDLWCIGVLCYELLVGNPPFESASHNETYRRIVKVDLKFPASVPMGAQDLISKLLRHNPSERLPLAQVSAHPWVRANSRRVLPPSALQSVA
UniProt Q9UQB9: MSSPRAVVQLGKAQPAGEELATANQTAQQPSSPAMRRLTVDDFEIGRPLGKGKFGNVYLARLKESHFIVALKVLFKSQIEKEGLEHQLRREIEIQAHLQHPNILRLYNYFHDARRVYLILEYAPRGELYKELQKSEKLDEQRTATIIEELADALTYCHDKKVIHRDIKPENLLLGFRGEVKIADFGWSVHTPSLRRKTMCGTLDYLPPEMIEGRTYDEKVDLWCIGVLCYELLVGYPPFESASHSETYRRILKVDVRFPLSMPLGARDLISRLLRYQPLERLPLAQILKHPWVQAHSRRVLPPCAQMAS
UniProt P51451: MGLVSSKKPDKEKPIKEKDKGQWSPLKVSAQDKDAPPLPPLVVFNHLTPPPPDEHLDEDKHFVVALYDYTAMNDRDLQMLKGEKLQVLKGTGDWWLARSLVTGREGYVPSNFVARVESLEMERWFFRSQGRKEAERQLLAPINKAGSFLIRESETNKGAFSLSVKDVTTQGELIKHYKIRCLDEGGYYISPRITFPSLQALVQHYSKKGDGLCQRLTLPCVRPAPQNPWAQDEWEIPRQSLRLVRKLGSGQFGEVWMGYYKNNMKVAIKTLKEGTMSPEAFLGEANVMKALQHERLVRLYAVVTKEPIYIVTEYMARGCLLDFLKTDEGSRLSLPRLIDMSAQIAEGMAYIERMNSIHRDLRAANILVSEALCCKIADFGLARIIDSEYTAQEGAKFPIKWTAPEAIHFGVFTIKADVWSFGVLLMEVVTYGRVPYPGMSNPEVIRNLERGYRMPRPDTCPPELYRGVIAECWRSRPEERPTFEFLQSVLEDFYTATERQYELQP
UniProt P51813: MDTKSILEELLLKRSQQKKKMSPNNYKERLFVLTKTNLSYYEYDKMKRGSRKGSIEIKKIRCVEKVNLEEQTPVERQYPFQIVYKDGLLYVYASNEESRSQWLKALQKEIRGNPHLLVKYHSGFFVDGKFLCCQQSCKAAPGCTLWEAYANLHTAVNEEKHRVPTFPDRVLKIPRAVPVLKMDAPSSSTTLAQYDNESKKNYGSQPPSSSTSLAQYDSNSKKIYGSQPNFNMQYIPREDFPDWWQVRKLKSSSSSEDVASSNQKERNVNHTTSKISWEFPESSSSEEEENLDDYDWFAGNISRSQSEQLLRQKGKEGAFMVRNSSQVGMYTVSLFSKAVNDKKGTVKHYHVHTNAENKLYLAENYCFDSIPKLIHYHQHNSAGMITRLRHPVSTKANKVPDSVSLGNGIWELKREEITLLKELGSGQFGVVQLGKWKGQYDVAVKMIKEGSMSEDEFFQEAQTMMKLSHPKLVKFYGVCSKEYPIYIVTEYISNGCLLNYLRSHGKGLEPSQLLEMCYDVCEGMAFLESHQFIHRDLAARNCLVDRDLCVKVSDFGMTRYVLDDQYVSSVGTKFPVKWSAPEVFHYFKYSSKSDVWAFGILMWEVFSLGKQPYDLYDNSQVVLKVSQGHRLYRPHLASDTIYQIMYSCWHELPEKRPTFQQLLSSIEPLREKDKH
UniProt P15056, whole entry, looked up: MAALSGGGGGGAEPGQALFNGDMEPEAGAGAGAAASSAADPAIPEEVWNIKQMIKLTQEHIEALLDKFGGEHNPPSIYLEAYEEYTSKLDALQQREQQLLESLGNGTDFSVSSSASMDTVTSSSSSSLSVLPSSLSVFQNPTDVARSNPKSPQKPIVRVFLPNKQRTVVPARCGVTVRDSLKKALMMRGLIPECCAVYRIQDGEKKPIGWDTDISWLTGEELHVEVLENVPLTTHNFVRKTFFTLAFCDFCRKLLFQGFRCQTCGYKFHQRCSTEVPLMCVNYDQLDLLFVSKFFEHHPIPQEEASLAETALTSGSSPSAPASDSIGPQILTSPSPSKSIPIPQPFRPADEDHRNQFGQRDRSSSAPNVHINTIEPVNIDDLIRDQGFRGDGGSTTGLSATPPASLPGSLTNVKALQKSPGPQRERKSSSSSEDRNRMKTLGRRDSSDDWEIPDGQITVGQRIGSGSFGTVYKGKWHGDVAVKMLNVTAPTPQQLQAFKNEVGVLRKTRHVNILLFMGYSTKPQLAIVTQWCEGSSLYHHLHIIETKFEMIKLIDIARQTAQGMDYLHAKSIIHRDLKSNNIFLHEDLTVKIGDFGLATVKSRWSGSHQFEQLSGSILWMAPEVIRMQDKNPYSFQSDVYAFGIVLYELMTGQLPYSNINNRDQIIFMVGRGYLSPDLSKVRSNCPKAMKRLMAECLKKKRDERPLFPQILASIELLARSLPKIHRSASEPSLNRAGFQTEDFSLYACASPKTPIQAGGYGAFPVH

Compound | kinase-Nluc reporter destabilization hit call (STK38) | kinase-Nluc reporter destabilization hit call (SYK) | kinase-Nluc reporter destabilization hit call (TEC) | kinase-Nluc reporter destabilization hit call (TYK2) | kinase-Nluc reporter destabilization hit call (ULK3) | kinase-Nluc reporter destabilization hit call (YES1) | kinase-Nluc reporter destabilization hit call (ZAK) | kinase-Nluc reporter destabilization hit call (ZAP70) | number of time points (ABL1) | number of time points (AKT1) | number of time points (ALK) | number of time points (ARAF) | number of time points (AURKA) | number of time points (AURKB) | number of time points (AURKC) | number of time points (BLK) | number of time points (BMX) | number of time points (BRAF) | number of time points (BRAF_V600E) | number of time points (BTK)
CC(C)n1ncnc1-c1cn2c(n1)-c1ccc(O[C@@H](C)C(N)=O)cc1OCC2 (10 µM) | inactive: 0 | inactive: 0 | inactive: 0 | inactive: 0 | inactive: 0 | inactive: 0 | inactive: 0 | inactive: 0 | 0 | 0 | 0 | 0 | 3 | 0 | 0 | 0 | 0 | 0 | 1 | 0
CNC(=O)c1ccc2c(C(=Nc3cccc(CN(C)C)c3)c3ccccc3)c(O)[nH]c2c1 [MEK inhibitor] (10 µM) | inactive: 0 | inactive: 0 | inactive: 0 | inactive: 0 | inactive: 0 | inactive: 0 | inactive: 0 | inactive: 0 | 0 | 0 | 0 | 0 | 0 | 0 | 0 | 0 | 0 | 0 | 0 | 0
Cc1ccc(NC(=O)Nc2cc(C(F)(F)F)ccc2F)cc1Nc1ccc2c(c1)NC(=O)/C2=C\c1ccc[nH]1 (2.5 µM) | inactive: 0 | inactive: 0 | inactive: 0 | inactive: 0 | inactive: 0 | inactive: 0 | inactive: 0 | inactive: 0 | 0 | 0 | 0 | 0 | 0 | 0 | 0 | 0 | 0 | 0 | 0 | 0
C=C1CCC[C@]2(C)C=C3OC(=O)C(C)=C3C[C@@H]12 [Atractylenolide I] (10 µM) | inactive: 0 | inactive: 0 | inactive: 0 | inactive: 0 | inactive: 0 | inactive: 0 | inactive: 0 | inactive: 0 | 0 | 0 | 0 | 0 | 0 | 0 | 0 | 0 | 0 | 0 | 0 | 0
CO[C@H]1C[C@@H]2CC[C@@H](C)[C@@](O)(O2)C(=O)C(=O)N2CCCC[C@H]2C(=O)O[C@H]([C@H](C)C[C@@H]2CC[C@@H](OCCO)[C@H](OC)C2)CC(=O)[C@H](C)/C=C(\C)[C@@H](O)[C@@H](OC)C(=O)[C@H](C)C[C@H](C)/C=C/C=C/C=C/1C [Everolimus] (10 µM) | inactive: 0 | inactive: 0 | inactive: 0 | inactive: 0 | inactive: 0 | inactive: 0 | inactive: 0 | inactive: 0 | 0 | 0 | 0 | 0 | 0 | 0 | 0 | 0 | 0 | 0 | 0 | 0
CCCCCc1ccc(/C=C/[C@H](O)[C@@H](CO)NC)cc1 [SK1-I (hydrochloride)] (10 µM) | inactive: 0 | inactive: 0 | inactive: 0 | inactive: 0 | inactive: 0 | inactive: 0 | inactive: 0 | inactive: 0 | 0 | 0 | 0 | 0 | 0 | 0 | 0 | 0 | 0 | 0 | 0 | 0
Nc1ncnc2c1nc(Br)n2[C@@H]1O[C@@H]2COP(=O)(O)O[C@H]2[C@H]1O [8-Bromo-cAMP sodium salt] (10 µM) | inactive: 0 | inactive: 0 | inactive: 0 | inactive: 0 | inactive: 0 | inactive: 0 | inactive: 0 | inactive: 0 | 0 | 0 | 0 | 0 | 0 | 0 | 0 | 0 | 0 | 0 | 0 | 0
Cc1cc(O)c2c(c1)C(=O)c1cccc(O)c1C2=O [Chrysophanol] (2 µM) | inactive: 0 | inactive: 0 | inactive: 0 | inactive: 0 | inactive: 0 | inactive: 0 | inactive: 0 | inactive: 0 | 0 | 0 | 0 | 0 | 0 | 0 | 0 | 0 | 0 | 0 | 0 | 0
Cc1cccc(-c2[nH]ncc2-c2ccnc3ccccc23)n1 (10 µM) | inactive: 0 | inactive: 0 | inactive: 0 | inactive: 0 | inactive: 0 | inactive: 0 | inactive: 0 | inactive: 0 | 0 | 0 | 0 | 0 | 0 | 0 | 0 | 0 | 0 | 0 | 0 | 0
C[C@@H]1O[C@@H](Oc2cc(O)c3c(=O)c(O[C@@H]4O[C@@H](C)[C@H](O)[C@@H](O)[C@H]4O)c(-c4ccc(O)cc4)oc3c2)[C@H](O)[C@H](O)[C@H]1O [Kaempferitrin] (10 µM) | inactive: 0 | inactive: 0 | inactive: 0 | inactive: 0 | inactive: 0 | inactive: 0 | inactive: 0 | inactive: 0 | 0 | 0 | 0 | 0 | 0 | 0 | 0 | 0 | 0 | 0 | 0 | 0
Cc1cc(C)cc(NC(N)=Nc2ccccc2C(F)(F)F)c1 (10 µM) | inactive: 0 | inactive: 0 | inactive: 0 | inactive: 0 | inactive: 0 | inactive: 0 | inactive: 0 | inactive: 0 | 0 | 0 | 0 | 0 | 0 | 0 | 0 | 0 | 0 | 0 | 0 | 0
O=C1Nc2ccc(I)cc2/C1=C/c1cc(Br)c(O)c(Br)c1 (10 µM) | inactive: 0 | inactive: 0 | inactive: 0 | inactive: 0 | inactive: 0 | inactive: 0 | inactive: 0 | inactive: 0 | 0 | 0 | 0 | 0 | 1 | 0 | 0 | 0 | 4 | 5 | 4 | 0
O=C(c1cccc(Cl)c1F)N1CCN(Cc2cccc(Nc3nccs3)n2)CC1 (2.5 µM) | inactive: 0 | inactive: 0 | inactive: 0 | inactive: 0 | inactive: 0 | inactive: 0 | inactive: 0 | inactive: 0 | 1 | 0 | 0 | 0 | 0 | 0 | 0 | 0 | 0 | 0 | 0 | 0
CC(C)=CC[C@@H](O)C1=CC(=O)c2c(O)ccc(O)c2C1=O [Shikonin] (10 µM) | inactive: 0 | inactive: 0 | inactive: 0 | inactive: 0 | inactive: 0 | inactive: 0 | inactive: 0 | inactive: 0 | 0 | 0 | 0 | 0 | 0 | 0 | 0 | 0 | 1 | 0 | 0 | 0
CC1(N)CCN(c2cccnc2NC(=O)c2nc(-c3ncccc3C(F)(F)F)cnc2N)CC1 [Darovasertib] (10 µM) | inactive: 0 | inactive: 0 | inactive: 0 | inactive: 0 | inactive: 0 | inactive: 0 | inactive: 0 | inactive: 0 | 0 | 0 | 0 | 0 | 0 | 0 | 0 | 0 | 0 | 0 | 0 | 0
Nc1nc2c(nc(Br)n2[C@@H]2O[C@@H]3COP(=O)(O)O[C@H]3[C@H]2O)c(=O)[nH]1 [8-Bromo-cGMP (sodium)] (10 µM) | inactive: 0 | inactive: 0 | inactive: 0 | inactive: 0 | inactive: 0 | inactive: 0 | inactive: 0 | inactive: 0 | 0 | 0 | 0 | 0 | 0 | 0 | 0 | 0 | 0 | 0 | 0 | 0
COc1cc2c(cc1O)C[C@H]1c3cc(O)c(OC)cc3CC[N@@+]1(C)C2 [Phellodendrine] (10 µM) | inactive: 0 | inactive: 0 | inactive: 0 | inactive: 0 | inactive: 0 | inactive: 0 | inactive: 0 | inactive: 0 | 0 | 0 | 0 | 0 | 0 | 0 | 0 | 0 | 0 | 0 | 0 | 0
O=C(Nc1cccc(-c2nc(-c3ccc(NC(=O)c4cccnc4)cc3Cl)no2)c1)Nc1ccc(NC(=O)C2CC2)c(C(F)(F)F)c1 (2.5 µM) | inactive: 0 | inactive: 0 | inactive: 0 | inactive: 0 | inactive: 0 | inactive: 0 | inactive: 0 | inactive: 0 | 0 | 0 | 0 | 0 | 0 | 0 | 0 | 0 | 0 | 0 | 0 | 0
Cc1cnc(NC(=O)c2cc(Oc3cnc(C(=O)N(C)C)nc3)c3cc(C)oc3c2)cn1 (10 µM) | inactive: 0 | inactive: 0 | inactive: 0 | inactive: 0 | inactive: 0 | inactive: 0 | inactive: 0 | inactive: 0 | 0 | 0 | 0 | 0 | 0 | 0 | 0 | 0 | 0 | 0 | 0 | 0
C=CC(=O)Nc1cc(Nc2nccc(-c3cn(C)c4ccccc34)n2)c(OC)cc1OCCN(C)C [Rezivertinib] (2.5 µM) | inactive: 0 | inactive: 0 | inactive: 0 | inactive: 0 | inactive: 0 | inactive: 0 | inactive: 0 | inactive: 0 | 0 | 0 | 0 | 0 | 0 | 0 | 0 | 1 | 0 | 0 | 0 | 0
CC(C)CCN1c2nc(Nc3cc(F)c(O)c(F)c3)ncc2N(C)C(=O)C1C (stereo not given) (2.5 µM) | inactive: 0 | inactive: 0 | inactive: 0 | inactive: 0 | inactive: 0 | inactive: 0 | inactive: 0 | inactive: 0 | 0 | 0 | 0 | 0 | 0 | 0 | 0 | 0 | 0 | 0 | 0 | 0

Reformatted as comma-separated lines: entries from further up
Compound,kinase-Nluc reporter destabilization hit call (STK38),kinase-Nluc reporter destabilization hit call (SYK),kinase-Nluc reporter destabilization hit call (TEC),kinase-Nluc reporter destabilization hit call (TYK2),kinase-Nluc reporter destabilization hit call (ULK3),kinase-Nluc reporter destabilization hit call (YES1),kinase-Nluc reporter destabilization hit call (ZAK),kinase-Nluc reporter destabilization hit call (ZAP70),number of time points (ABL1),number of time points (AKT1),number of time points (ALK),number of time points (ARAF),number of time points (AURKA),number of time points (AURKB),number of time points (AURKC),number of time points (BLK),number of time points (BMX),number of time points (BRAF),number of time points (BRAF_V600E),number of time points (BTK)
CCCCCc1ccc(/C=C/[C@H](O)[C@@H](CO)NC)cc1 [SK1-I (hydrochloride)] (10 µM),inactive: 0,inactive: 0,inactive: 0,inactive: 0,inactive: 0,inactive: 0,inactive: 0,inactive: 0,0,0,0,0,0,0,0,0,0,0,0,0
Nc1ncnc2c1nc(Br)n2[C@@H]1O[C@@H]2COP(=O)(O)O[C@H]2[C@H]1O [8-Bromo-cAMP sodium salt] (10 µM),inactive: 0,inactive: 0,inactive: 0,inactive: 0,inactive: 0,inactive: 0,inactive: 0,inactive: 0,0,0,0,0,0,0,0,0,0,0,0,0
